{"source": "patent US20110165699A1", "about": "(priority 2009, published 2011)", "origin": "cited, not measured here", "conditions": "Canal, JCO 1996", "note": "Some results were stated once for a whole list of compounds, not compound by compound.", "data": [{"smiles": "CCc1c2c(nc3ccc(O)cc13)-c1cc3c(c(=O)n1C2)COC(=O)[C@]3(O)CC", "note": "[SN-38, 7-ethyl-10-hydroxy-camptotheen]", "values": [{"measurement": "variation in AUCs", "result": "> 40", "unit": "fold"}]}]}
